Experimental data reported in paper PMC9135752.
Results are given in words; binding and its absence hold for the method and conditions named. Binding seen in cells or lysates may run through a third protein. Binding calls can cover weak binding; strength is not graded here.

Sequences of proteins named here, by UniProt entry; tags and fusion partners are left off. Residues count along the entry.
UniProt P0DTC7, residues 16-121: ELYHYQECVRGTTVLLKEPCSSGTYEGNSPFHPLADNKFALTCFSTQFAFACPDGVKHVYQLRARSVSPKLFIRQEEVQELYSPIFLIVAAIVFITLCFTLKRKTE

Biological target: SARS-CoV-2 N'V5-ORF7a (SARS-CoV-2) (UniProt P0DTC7)
Test: co-IP

SERINC5-HA (pBJ5-hSERINC5-HA) (from UniProt Q86VE9-4)
binding: binds
